Results taken from paper PMC8193931.
Results are given in words; binding and its absence hold for the method and conditions named. Binding seen in cells or lysates may run through a third protein. Some results given as binding are weak or reduced against the parent protein; the word gives no strength. Sequences can lack the tags named with a protein.

Chains of the proteins cited; added tags and fusions are not shown.
UniProt Q9ULW0: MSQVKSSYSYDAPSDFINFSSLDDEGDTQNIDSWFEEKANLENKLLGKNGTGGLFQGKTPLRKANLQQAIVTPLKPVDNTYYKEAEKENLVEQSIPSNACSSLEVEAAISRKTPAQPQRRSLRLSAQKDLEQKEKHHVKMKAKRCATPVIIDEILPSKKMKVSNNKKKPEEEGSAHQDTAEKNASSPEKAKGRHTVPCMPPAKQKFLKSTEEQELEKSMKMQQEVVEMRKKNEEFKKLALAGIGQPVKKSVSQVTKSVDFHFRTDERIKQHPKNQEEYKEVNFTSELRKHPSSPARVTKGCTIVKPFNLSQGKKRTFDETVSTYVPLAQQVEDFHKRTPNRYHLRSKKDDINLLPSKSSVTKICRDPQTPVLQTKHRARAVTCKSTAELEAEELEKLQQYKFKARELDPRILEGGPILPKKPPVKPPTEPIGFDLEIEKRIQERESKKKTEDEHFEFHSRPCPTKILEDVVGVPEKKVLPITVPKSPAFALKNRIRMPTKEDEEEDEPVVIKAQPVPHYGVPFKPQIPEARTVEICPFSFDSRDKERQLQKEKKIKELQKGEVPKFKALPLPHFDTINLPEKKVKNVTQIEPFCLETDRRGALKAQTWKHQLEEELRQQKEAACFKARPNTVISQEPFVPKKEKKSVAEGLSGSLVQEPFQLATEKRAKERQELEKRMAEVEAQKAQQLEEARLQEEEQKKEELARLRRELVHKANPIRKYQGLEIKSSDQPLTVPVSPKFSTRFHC

Target: T1, FLAG-ETS-1 (E26 transformation specific sequence 1) (UniProt P14921)
T1 sequence: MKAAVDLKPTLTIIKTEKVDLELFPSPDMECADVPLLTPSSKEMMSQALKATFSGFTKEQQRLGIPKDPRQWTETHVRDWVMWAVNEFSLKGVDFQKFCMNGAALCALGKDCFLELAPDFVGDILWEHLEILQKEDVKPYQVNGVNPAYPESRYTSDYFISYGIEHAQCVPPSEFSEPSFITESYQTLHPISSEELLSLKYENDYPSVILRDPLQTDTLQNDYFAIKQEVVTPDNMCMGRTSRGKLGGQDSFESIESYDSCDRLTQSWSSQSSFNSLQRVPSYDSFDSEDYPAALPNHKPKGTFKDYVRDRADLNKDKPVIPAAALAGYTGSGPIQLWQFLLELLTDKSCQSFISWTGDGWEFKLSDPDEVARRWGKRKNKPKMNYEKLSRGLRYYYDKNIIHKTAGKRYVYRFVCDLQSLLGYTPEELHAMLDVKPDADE
Assay: co-IP; PC-3 cells transfected with FLAG or the FLAG-tagged protein, treated with the solvent control or 10 ng/ml HGF; analysed using the IP methods

TPX2 (the targeting protein for Xklp2) (from UniProt Q9ULW0 1-747)
binding: binds
